## Library screening results

Source: ChEMBL document CHEMBL3988442, “University of Dundee, Small-Polar-MMV Screening Library” (2021).

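Viability assay of Plasmodium falciparum sporozoites; the read-out is not stated. The concentration is filed as 10 mM, unlikely as a test dose, so the dose is not known. Higher reads as lower viability (inferred: compounds with an IC50 in retests scored well above the rest). Strong results were mostly tested again. Of about 34,000 compounds tested this way, about 280 (0.84%) reached 50% or more in at least one test.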

The filed quantity is “Percent Effect” (%).
The record does not define 0% and 100%; most values in the screen are far below 50% and negative numbers occur (in some assays of this library far below -100).
Compounds were drawn at random from those tested, without regard to their results.
Two or more numbers in one place are separate tests of the same structure; such repeats can differ widely.

CN(C)CCN(Cc1ccc(C#N)cc1)C(=O)c1ccn(C)c(=O)c1 read 10.64%. For c1ccc(-n2ccc(CN3CCCC3Cn3cncn3)n2)cc1 (stereo not given) the result was -0.1329% & -2.002% & 6.58%. CS(=O)(=O)NCC1CCCN(C(=O)CCCc2ccccc2)C1 (stereo not given) read 10.25%. For CCCN1C(=O)CC(N2CCN(c3ccc(F)cc3)CC2)C1=O (stereo not given) the result was 0.5637%. Result for CN1CCc2cc(C(=O)N(C)C)c(NCC3CC3)nc2CC1.O=C(O)C(F)(F)F.O=C(O)C(F)(F)F was 0.08772%.

For O=C(O)C(F)(F)F.[H][C@@]12CCCO[C@]1([H])[C@@H](NC(=O)N(C)C)CN2Cc1ccc2c(c1)OCO2 the result was -10.29%. Cc1ccc(CN2CCC(F)(F)C3(CCN(c4cnccn4)C3)C2)o1.O=C(O)C(F)(F)F.O=C(O)C(F)(F)F (stereo not given) gave -7.892%. For Cc1noc2ncc(C(=O)NCC3CCCO3)cc12 (stereo not given) the result was 9.598%. With Cn1cc(CN2CCCC3(CCCCN3S(C)(=O)=O)C2)cn1.O=C(O)C(F)(F)F (stereo not given) the screen gave -15.1%. Result for CN(Cc1nnc(C2CC2)n1C)C1CCN(Cc2ccc(F)cc2)C1 (stereo not given) was 5.12%.

With CC(C)N1CCC2(C=C(C(=O)NC3CC3)c3ccccc32)CC1.O=C(O)C(F)(F)F the screen gave -3.765%. CS(=O)(=O)c1ccc(CNC2CCCN(c3cccnn3)C2)cc1 (stereo not given) read -3.699%. With O=C(NCCC1COc2ccccc2O1)c1ccc(-c2cc[nH]n2)nc1 (stereo not given) the screen gave -15.85%. COCCN(C)C(=O)c1ccc2onc(-c3coc(C)n3)c2c1 read -17.76%. For [H][C@@]12CNC[C@]1([H])CN(c1nc(C)nc3ccsc13)C2 the result was 9.349%.

CN(C(=O)c1ccc(-n2ncc(C#N)c2N)cc1)C1CCCC1 gave 3.646%. CC(C)c1noc(CCCC(=O)N2CCN(S(C)(=O)=O)CC2)n1 read 9.891%. With CC(C)c1nc2n(n1)CC(NCc1nc(-c3ccccn3)no1)CC2 (stereo not given) the screen gave 0.8919% & -15.66% & -11.73%. With CC(C)n1cnnc1CN(C)Cc1ccoc1 the screen gave -20.96% & -17.06%. With O=C(Cn1cccnc1=O)NC(Cc1ccsc1)c1nccs1 (stereo not given) the screen gave 8.661%.

For O=C(O)C(F)(F)F.[H][C@@]12CCN(Cc3ccccc3)[C@@]1([H])CC(=O)N2CCOC the result was 6.1%. For Cc1noc(C2CCCN2C(=O)C2CCC2)n1 (stereo not given) the result was 1.841%. COCCN1CCCCC12CC(=O)N(c1cccc(C#N)c1)C2.O=C(O)C(F)(F)F (stereo not given) read 11.21%. O=C(CN1CCCCC1Cn1cncn1)NCCC1=CCCCC1 (stereo not given) read 3.043%. Result for Cc1cc(NC(=O)CNC2CCc3ncnn3C2)no1 (stereo not given) was -18.73%.

CCC(=O)N1CCc2onc(CNS(C)(=O)=O)c2C1 gave 7.426%. O=C(O)C(F)(F)F.O=C(O)C(F)(F)F.O=C1CCC2(CCCN(Cc3nccs3)C2)N1CC1CC1 (stereo not given) gave 15.19%. COC(=O)c1ccc(NC(=O)CN2CCCCC2C2OCCO2)cc1 (stereo not given) read -4.281%. With O=C(O)C(F)(F)F.[H][C@@]12COC[C@]1(COc1ccccn1)CN(C(=O)c1c(C)noc1C)C2 the screen gave 10.46%. Result for CC(C)C(=O)NCCNc1nccc(-c2cc(C(=O)O)ccn2)n1 was 1.299%.

Result for Cc1cc(C)n(-c2cncc(N3CCN(C(=O)C(C)(C)C)CC3)n2)n1 was 3.833%. Result for CC(=O)N1CCC[C@@H](NCc2ccc(F)cc2)[C@@H]1c1ccc(C)s1 was -97.57%.

Once more, the final 2:

Compound	Percent Effect
Cc1cc(C)n(-c2cncc(N3CCN(C(=O)C(C)(C)C)CC3)n2)n1	3.833
CC(=O)N1CCC[C@@H](NCc2ccc(F)cc2)[C@@H]1c1ccc(C)s1	-97.57